Laboratory results taken from the supplement of paper PMC10973195.
± gives the standard deviation of the averaged measurements. This is one part of the list. These are raw signals, not scaled to a control.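 In this assay, LPS from bacteria induces microglia-mediated neuronal death in a neuron–microglia–astrocyte co-culture, a model of inflammatory neurodegeneration. Compounds were compared against same-plate DMSO vehicle wells, with the SYK inhibitor BAY61-3606 as reference neuroprotective control.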

Key:
Settings in all cases: 1 µM, treatment time 3 days
[1] = system: rat primary cerebellar neuron-glia coculture; experiment: microglia count (IB4+) per image field (cells per field); higher = more microglia
[2] = system: rat primary cerebellar neuron-glia coculture; experiment: live neuron count (NeuO+) per image field (cells per field); higher = more surviving neurons
[3] = system: rat primary cerebellar neuron-glia coculture; experiment: median microglial FormFactor (circularity) per image (dimensionless (0-1)); higher = rounder, more ameboid microglia
[4] = system: rat primary cerebellar neuron-glia coculture; experiment: necrotic cell count (DRAQ7+) per image field (cells per field); higher = more necrosis

SMILES	microglia count ([1]; LPS 0 ng/mL)	microglia count ([1]; LPS 100 ng/mL)	live neuron count ([2]; LPS 0 ng/mL)	live neuron count ([2]; LPS 100 ng/mL)	median microglial FormFactor ([3]; LPS 0 ng/mL)	median microglial FormFactor ([3]; LPS 100 ng/mL)	necrotic cell count ([4]; LPS 0 ng/mL)	necrotic cell count ([4]; LPS 100 ng/mL)
Cc1nccn1CC1CCc2c(c3ccccc3n2C)C1=O (centres undefined)	183 ± 70	455 ± 91	2670 ± 540	348 ± 360	0.542 ± 0.092	0.664 ± 0.072	–	–
CC(=O)Nc1cccc(-n2c(=O)n(C3CC3)c(=O)c3c(Nc4ccc(I)cc4F)n(C)c(=O)c(C)c32)c1	64.2 ± 24	307 ± 39	2780 ± 270	1250 ± 720	0.591 ± 0.1	0.665 ± 0.069	–	–
CCN(CC)CCOC(=O)C1(c2ccccc2)CCCC1	175 ± 51	412 ± 70	2570 ± 570	338 ± 290	0.516 ± 0.072	0.679 ± 0.056	–	–
Cn1/c(=N/NC(=O)C23CC4CC(CC(C4)C2)C3)sc2ccccc21	174 ± 73	437 ± 70	2440 ± 740	386 ± 420	0.466 ± 0.1	0.676 ± 0.063	–	–
COc1ccc(COC(=O)C2=C(C)NC(=O)NC2c2ccccc2)cc1 (centres undefined)	165 ± 39	389 ± 62	2210 ± 400	629 ± 590	0.571 ± 0.083	0.676 ± 0.11	–	–
COc1ccc([C@@H]2Sc3ccccc3N(CCN(C)C)C(=O)[C@@H]2OC(C)=O)cc1	160 ± 32	462 ± 67	2550 ± 490	443 ± 510	0.589 ± 0.09	0.644 ± 0.059	–	–
O=C(NCCCCCCNC(=O)ON=C1CCCCC1)ON=C1CCCCC1	170 ± 47	450 ± 81	2670 ± 530	591 ± 580	0.56 ± 0.091	0.635 ± 0.065	–	–
O=C(N[C@@H](c1ccccc1)[C@@H]1CCCCN1)c1cccc(C(F)(F)F)c1Cl	153 ± 51	428 ± 60	2580 ± 490	471 ± 420	0.542 ± 0.086	0.674 ± 0.088	95.8 ± 38	967 ± 330
CC(=O)O[C@]1(C(C)=O)CC[C@H]2[C@@H]3C[C@H](C)C4=CC(=O)CC[C@]4(C)[C@H]3CC[C@@]21C	163 ± 63	575 ± 90	2690 ± 470	2450 ± 830	0.567 ± 0.094	0.441 ± 0.081	111 ± 34	148 ± 60
N#CC(C#N)CC(=O)c1ccccc1	191 ± 69	464 ± 91	2620 ± 390	321 ± 420	0.553 ± 0.063	0.661 ± 0.063	71.7 ± 40	908 ± 330
CCOc1ccc2oc(C(=O)NC(CCSC)c3nc4ccccc4[nH]3)c(C)c2c1 (centres undefined)	161 ± 33	434 ± 96	2590 ± 450	532 ± 650	0.556 ± 0.097	0.664 ± 0.069	79.7 ± 32	944 ± 420
CCCCCCCC(=O)N[C@H](CN1CCCC1)[C@H](O)c1ccc2c(c1)OCCO2	227 ± 52	460 ± 130	2080 ± 510	230 ± 190	0.524 ± 0.084	0.638 ± 0.082	56.8 ± 17	985 ± 330
CCCCCCCCCCCCC/C=C/[C@@H](O)[C@@H](N)COP(=O)(O)O	181 ± 63	447 ± 67	2580 ± 380	437 ± 400	0.538 ± 0.09	0.654 ± 0.045	86.2 ± 25	819 ± 260
CC(C)(C)c1cc(C(=O)Cn2c(=N)n(CCN3CCOCC3)c3ccccc32)cc(C(C)(C)C)c1O	203 ± 85	420 ± 51	2620 ± 470	446 ± 420	0.542 ± 0.074	0.646 ± 0.086	77.5 ± 24	904 ± 360
O=c1c2ccccc2nc2n1CCc1c-2[nH]c2ccccc12	170 ± 74	414 ± 97	2670 ± 570	172 ± 180	0.563 ± 0.09	0.703 ± 0.045	89.8 ± 44	1120 ± 370
CC(=O)Nc1cccc2c1c(Sc1ccc(Cl)cc1)c(C)n2CC(=O)O	150 ± 39	519 ± 94	2550 ± 660	1630 ± 1000	0.543 ± 0.11	0.553 ± 0.1	114 ± 35	452 ± 280
CCCCC[C@H](CC(=O)NO)C(=O)N[C@H](C(=O)N1CCC[C@H]1CO)C(C)C	229 ± 240	425 ± 69	2450 ± 520	472 ± 520	0.54 ± 0.085	0.679 ± 0.053	89.6 ± 30	882 ± 260
COc1cc2c(CCNC(C)=O)c[nH]c2cc1Cl	192 ± 74	414 ± 71	2640 ± 400	221 ± 200	0.528 ± 0.079	0.704 ± 0.037	83 ± 33	1060 ± 440
O=C(O)c1cc(-c2ccc(Cl)cc2)ncn1	181 ± 39	459 ± 100	2700 ± 550	270 ± 120	0.554 ± 0.093	0.646 ± 0.063	88.1 ± 43	1040 ± 340
C/C(=N\NC(=O)c1cccc(S(=O)(=O)N2CCOCC2)c1)c1ccccc1O	183 ± 59	427 ± 94	2610 ± 500	418 ± 740	0.545 ± 0.13	0.66 ± 0.054	82.9 ± 40	921 ± 280
NC1(Cc2ccc(Cl)cc2)CCN(c2ncnc3[nH]ccc23)CC1	153 ± 61	416 ± 80	2660 ± 400	530 ± 600	0.621 ± 0.09	0.616 ± 0.1	87.1 ± 28	1030 ± 400
COc1ccc(-c2c(C)nn3c(NCCN4CCOCC4)cc(C)nc23)cc1OC	188 ± 78	437 ± 140	2680 ± 450	644 ± 910	0.52 ± 0.07	0.691 ± 0.11	98.5 ± 32	1260 ± 550
O=C(O)/C=C/c1ccc(O)c(O)c1	206 ± 36	401 ± 77	1040 ± 440	459 ± 300	0.489 ± 0.083	0.764 ± 0.053	48.9 ± 34	786 ± 330
Oc1cc2c(cc1O)C(c1ccccc1)CNCC2 (centres undefined)	162 ± 30	416 ± 52	2710 ± 660	446 ± 480	0.559 ± 0.066	0.696 ± 0.079	98.3 ± 45	954 ± 390
COc1ccc(-c2cc3nccn3c(Nc3ncccc3C(N)=O)n2)cc1OC	98.4 ± 51	348 ± 75	3120 ± 420	3560 ± 490	0.567 ± 0.066	0.541 ± 0.096	285 ± 91	161 ± 120
O=C1Nc2ccc(I)cc2/C1=C/c1cc(Br)c(O)c(Br)c1	154 ± 38	431 ± 88	2470 ± 700	312 ± 270	0.545 ± 0.06	0.656 ± 0.066	96.7 ± 31	1000 ± 320

Copied from the list.
Entry of COc1ccc(-c2c(C)nn3c(NCCN4CCOCC4)cc(C)nc23)cc1OC under necrotic cell count ([4]; LPS 0 ng/mL): 98.5 ± 32
Entry of CCCCCCCCCCCCC/C=C/[C@@H](O)[C@@H](N)COP(=O)(O)O under median microglial FormFactor ([3]; LPS 100 ng/mL): 0.654 ± 0.045
